Tested on: gene expression in amygdala, frontal cortex, hippocampus
Experiment: RNA-sequencing of rat brain areas
Assay type: in vivo
Conditions: for share of regulated genes also regulated by the other drug: FIG. 29E; for number of significantly regulated genes: Example 27, 10 mg/kg IP; for number of differentially regulated genes: 10 mg/kg IP, 8 hours post-dose, >25% change, padj <0.1

Compound | downregulated genes (MDMA only) (amygdala, Example 27) | upregulated genes (MDMA only) (amygdala, Example 27) | share of regulated genes also regulated by the other drug (amygdala) | more genes regulated than methylone (frontal cortex, Example 27) | number of significantly regulated genes (frontal cortex) | number of differentially regulated genes (amygdala) | number of differentially regulated genes (frontal cortex) | number of differentially regulated genes (hippocampus)
CNC(C)Cc1ccc2c(c1)OCO2 (racemic) [MDMA, 3,4-Methylenedioxymethamphetamine] | 774 genes | 539 genes | 7% | ~72% | 825 genes | – | – | –
CNC(C)C(=O)c1ccc2c(c1)OCO2 (stereo not shown) [methylone, 3,4-methylenedioxy-N-methylcathinone] | – | – | 87% | – | 480 genes | 121 genes | 471 genes | 12 genes
